Data published in PubChem BioAssay AID504847 (National Center for Advancing Translational Sciences (NCATS), 2011).
The campaign covered roughly 400,000 compounds. About 3,700 (0.93%) were called active. The shares of active, inactive and inconclusive entries below differ from those in the screen. Calls come from the whole dose curve; as a rule, active = well fitted inhibition curve with a large enough effect; inconclusive = small, poorly fitted or top-dose-only effect, or another doubt; inactive = no such curve, though single readings can be large or run the other way. Where the call is inconclusive, the potency comes from a doubtful curve fit.

Protein sequences, listed by entry. Tags and fused reporters are not part of them. Lines headed by an entry give the natural chain unless they say otherwise; changes in a name come on top.
UniProt P11473: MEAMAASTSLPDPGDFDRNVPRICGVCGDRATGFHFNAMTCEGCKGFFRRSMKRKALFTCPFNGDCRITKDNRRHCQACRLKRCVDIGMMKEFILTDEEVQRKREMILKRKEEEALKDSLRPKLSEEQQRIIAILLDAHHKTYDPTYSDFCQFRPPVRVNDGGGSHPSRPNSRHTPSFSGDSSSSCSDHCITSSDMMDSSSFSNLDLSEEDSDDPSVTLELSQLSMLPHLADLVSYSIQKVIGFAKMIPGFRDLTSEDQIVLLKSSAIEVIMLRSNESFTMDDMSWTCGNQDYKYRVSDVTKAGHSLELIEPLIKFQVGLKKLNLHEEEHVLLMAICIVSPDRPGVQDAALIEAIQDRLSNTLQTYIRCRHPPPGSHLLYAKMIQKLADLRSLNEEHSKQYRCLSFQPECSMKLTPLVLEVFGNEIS

target: Vitamin D3 receptor (Homo sapiens) (UniProt P11473); assay: Inhibitors of the vitamin D receptor (VDR): qHTS; conditions: VDR-SRC2-3 peptide fluorescence polarization, 2 h; max response, negative = inhibition: stronger effect = lower value
How it was run: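 Fluorescence polarization assay of small-molecule disruption of VDR binding to coregulator peptide SRC2-3. Compounds and controls pin-transferred, then read after 2 h incubation at ambient room temperature.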
% is set by controls: 0 for no effect and ±100 for the full control effect; potency is the fitted concentration of half-maximal effect.

Structure (SMILES)	Potency	max response, negative = inhibition
CC1CCc2ccccc2N1C(=O)c1cccs1 (stereo not given)	inconclusive: 28.2 µM [inhibitor, full curve, poor fit]	
O=C(CSc1n[nH]c(=O)[nH]c1=O)N1CCCCCC1	inconclusive: 28.2 µM [inhibitor, single point]	
Cc1ccc(C(=O)c2coc3ccc(O)cc23)cc1		inactive: -12.4%
C/C(CC(=O)Nc1ccccn1)=N\NC(=O)C(=O)Nc1cccc(C)c1	inconclusive: 6.31 µM [inhibitor, partial curve, poor fit]	
S=c1[nH]nc(-c2ccco2)n1/N=C/c1cccc(Cl)c1		inactive: -7.26%
Cc1ccc2ccc3cc(C(=O)N4CCN(c5ccccc5)CC4)nc3c2[nH]1		inactive: 2.93%
COc1ccc(OC)c(S(=O)(=O)Nc2cc(C(=O)O)ccc2N2CC3CC(C2)c2cccc(=O)n2C3)c1 (stereo not given)		inactive: 13.7%
Cc1ccccc1N1C(S)=C(C#N)C(=O)NC12CCCCC2	active: 31.6 µM	
Oc1ccc(NCc2ccc(OCc3ccccc3Cl)cc2)cc1	inconclusive: 56.2 µM [inhibitor, partial curve, poor fit]	
O=C(COc1ccc(Cl)cc1)Nc1nc(-c2ccncc2)cs1	inconclusive: 89.1 µM [inhibitor, single point]	
CSc1n[nH]c2nc3c(c(=O)n12)C1(CCCCC1)Cc1ccccc1-3		inactive: -24.2%
COc1cc(/C=C2\SC(=S)N(Nc3ncc(C(F)(F)F)cc3Cl)C2=O)cc(OC)c1OC	inconclusive: 79.4 µM [inhibitor, partial curve, poor fit]	
FC(F)(F)c1ccccc1-c1nccc(NCc2ccccc2)n1	inconclusive: 39.8 µM [inhibitor, partial curve, poor fit]	
CCC(C)C1NC(=O)C(Cc2ccc(O)cc2)NC(=O)C(N)CSSCC(C(=O)N2CCCC2C(=O)NC(CC(C)C)C(=O)NCC(N)=O)NC(=O)C(CC(N)=O)NC(=O)C(CCC(N)=O)NC1=O (stereo not given)	active: 12.6 µM	
CCOc1cccc(C=Nc2cc(C)cc(C)c2O)c1O	inconclusive: 44.7 µM [inhibitor, partial curve, poor fit]	
CCOC(=O)c1c(S(=O)(=O)N2CCC(C(=O)N3CCN(c4cc(C)ccc4C)CC3)CC2)c(C)n(C)c1C		inactive: 11.9%
CCCC(=O)OCCNc1cc(Sc2nc3ccccc3[nH]2)c2nonc2c1[N+](=O)[O-]	active: 20 µM	
CCOc1cc(CNc2ccc(O)cc2)cc(Br)c1OCc1ccccc1F	active: 79.4 µM	
CCOc1cc(N2CCOCC2)c(OCC)cc1NC(=O)COC(=O)C1CCCN1S(=O)(=O)c1ccccc1F (stereo not given)		inactive: 1.33%
O=S(=O)(c1ccccc1)c1nc(-c2ccc(F)cc2)oc1N1CCCCCC1		inactive: -16.3%

Structure (SMILES)	Potency	max response, negative = inhibition
CCCn1c(=NC(C)=O)c(C(=O)OCC)cc2c(=O)n3ccccc3nc21	inconclusive: 70.8 µM [inhibitor, partial curve, poor fit]	
CC(C)NC(=O)c1ccccc1NC(=O)C1COc2ccccc2O1 (stereo not given)	inconclusive: 14.1 µM [inhibitor, full curve]	
CCOC(=O)/C=C/C(=O)OCC(=O)Nc1ccc(Cl)cc1Cl	inconclusive: 89.1 µM [inhibitor, single point]	
CCc1ccccc1N1CSC2=C(C#N)C(c3ccccc3F)CC(=O)N2C1 (stereo not given)	inconclusive: 39.8 µM [inhibitor, full curve, poor fit]	
CCOc1ccc(C(=O)CC(=O)C(=O)NCCc2ccc(OC)c(OC)c2)cc1	inconclusive: 89.1 µM [inhibitor, single point]	
CCOc1ccc2c(c1)C(C)=CC(C)(C)N2S(=O)(=O)c1ccc(NC(C)=O)cc1		inactive: -17.8%
COCCCN(C(=O)c1cc2c(s1)CCC2)c1c(N)n(Cc2ccccc2)c(=O)[nH]c1=O	inconclusive: 70.8 µM [inhibitor, partial curve, poor fit]	
Cc1c(CC(=O)N[C@H](C(=O)O)C(C)C)c(=O)oc2cc3c(cc12)CCC(C)(C)O3	inconclusive: 20 µM [inhibitor, partial curve, poor fit]	
O=C(CC1CS(=O)(=O)CC1CC(=O)Nc1ccc2c(c1)OCCO2)Nc1ccc2c(c1)OCCO2 (stereo not given)	inconclusive: 44.7 µM [inhibitor, full curve, poor fit]	
O=C(CSc1nnc(NC(=O)C2CC2)s1)Nc1ccc2c(c1)OCCO2	inconclusive: 89.1 µM [inhibitor, single point]	
N#CC1=C(N)C2=CCCC[C@H]2[C@H](c2ccccc2)C1(C#N)C#N	active: 79.4 µM	
O=S1(=O)CCO[C@H]2Cc3ccccc3[C@H]2N1Cc1cccc(F)c1	inconclusive: 63.1 µM [inhibitor, partial curve, poor fit]	
Cc1cc(=O)cc2oc3cc(N)c(-c4c(C)cc(O)cc4O)c(C)c3nc1-2	inconclusive: 35.5 µM [inhibitor, partial curve]	
C=CCNC1=C2C[C@@H](C)C[C@H](OC)[C@H](O)[C@@H](C)/C=C(\C)[C@H](OC(N)=O)[C@@H](OC)/C=C\C=C(/C)C(=O)NC(=CC1=O)C2=O	inconclusive: 50.1 µM [inhibitor, partial curve]	
O=C(O)CCC(=O)Nc1ccccc1Oc1ccccc1	active: 79.4 µM	
Cc1cc(NS(=O)(=O)c2ccc(NC(NC(=O)C(C(F)(F)F)C(F)(F)F)(C(F)(F)F)C(F)(F)F)cc2)no1	inconclusive: 79.4 µM [inhibitor, partial curve]	
CC1=CC(C)(C)Nc2ccc(OC(=O)CN3C(=O)c4ccccc4C3=O)cc21		inactive: -10.6%
Cc1ccc(-c2nnnn2-c2ccc(C)cc2)cc1	inconclusive: 89.1 µM [inhibitor, single point]	
CC(=O)c1cccc(NC(=O)/C(=C\c2cccnc2)NC(=O)c2ccccc2)c1		inactive: -0.257%
Cc1ccc(Cl)cc1C1=CC(=O)C[C@H](c2ccc(F)cc2)C1	inconclusive: 79.4 µM [inhibitor, single point]	

Another view of three compounds above:
Structure (SMILES) | Potency | max response, negative = inhibition
CC1CCc2ccccc2N1C(=O)c1cccs1 (stereo not given) | inconclusive: 28.2 µM [inhibitor, full curve, poor fit] | 
CCc1ccccc1N1CSC2=C(C#N)C(c3ccccc3F)CC(=O)N2C1 (stereo not given) | inconclusive: 39.8 µM [inhibitor, full curve, poor fit] | 
COCCCN(C(=O)c1cc2c(s1)CCC2)c1c(N)n(Cc2ccccc2)c(=O)[nH]c1=O | inconclusive: 70.8 µM [inhibitor, partial curve, poor fit] | 
